Read-outs that look alike come from different tables or passages of the source. Results are given in words; binding and its absence hold for the method and conditions named. Binding seen in cells or lysates may run through a third protein. A yes stands for co-enrichment or nearness to the bait. Other partners may have been found.
How the values were obtained:
[1] = target: Parkin (human (endogenous in platelets)) (UniProt O60260); experiment: affinity purification with mass spectrometry; IP with Parkin-specific antibodies from human DM platelet lysate; silver-stained gel, 10 bands enriched in DM against HC cut out; in-gel trypsin digestion, LC-MS/MS, Mascot search
[2] = target: Parkin (human (endogenous in platelets)) (UniProt O60260); experiment: as above; remark: listed apart in the source

Protein sequences, listed by entry. Tags and fused reporters are not part of them. Lines headed by an entry give the natural chain unless they say otherwise; changes in a name come on top. Residues count along the entry.
UniProt O60260: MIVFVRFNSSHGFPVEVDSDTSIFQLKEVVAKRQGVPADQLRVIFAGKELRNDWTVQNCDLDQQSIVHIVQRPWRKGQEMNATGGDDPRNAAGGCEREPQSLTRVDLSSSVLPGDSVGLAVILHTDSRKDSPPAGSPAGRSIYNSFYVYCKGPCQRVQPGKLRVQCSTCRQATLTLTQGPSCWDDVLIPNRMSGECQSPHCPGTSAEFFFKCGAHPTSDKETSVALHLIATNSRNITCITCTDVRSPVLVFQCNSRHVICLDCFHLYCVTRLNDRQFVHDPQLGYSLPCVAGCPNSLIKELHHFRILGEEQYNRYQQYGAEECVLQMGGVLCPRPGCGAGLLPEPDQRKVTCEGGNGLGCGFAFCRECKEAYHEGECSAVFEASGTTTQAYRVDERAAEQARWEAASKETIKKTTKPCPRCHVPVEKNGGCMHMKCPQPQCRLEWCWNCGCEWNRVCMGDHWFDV
UniProt P00747: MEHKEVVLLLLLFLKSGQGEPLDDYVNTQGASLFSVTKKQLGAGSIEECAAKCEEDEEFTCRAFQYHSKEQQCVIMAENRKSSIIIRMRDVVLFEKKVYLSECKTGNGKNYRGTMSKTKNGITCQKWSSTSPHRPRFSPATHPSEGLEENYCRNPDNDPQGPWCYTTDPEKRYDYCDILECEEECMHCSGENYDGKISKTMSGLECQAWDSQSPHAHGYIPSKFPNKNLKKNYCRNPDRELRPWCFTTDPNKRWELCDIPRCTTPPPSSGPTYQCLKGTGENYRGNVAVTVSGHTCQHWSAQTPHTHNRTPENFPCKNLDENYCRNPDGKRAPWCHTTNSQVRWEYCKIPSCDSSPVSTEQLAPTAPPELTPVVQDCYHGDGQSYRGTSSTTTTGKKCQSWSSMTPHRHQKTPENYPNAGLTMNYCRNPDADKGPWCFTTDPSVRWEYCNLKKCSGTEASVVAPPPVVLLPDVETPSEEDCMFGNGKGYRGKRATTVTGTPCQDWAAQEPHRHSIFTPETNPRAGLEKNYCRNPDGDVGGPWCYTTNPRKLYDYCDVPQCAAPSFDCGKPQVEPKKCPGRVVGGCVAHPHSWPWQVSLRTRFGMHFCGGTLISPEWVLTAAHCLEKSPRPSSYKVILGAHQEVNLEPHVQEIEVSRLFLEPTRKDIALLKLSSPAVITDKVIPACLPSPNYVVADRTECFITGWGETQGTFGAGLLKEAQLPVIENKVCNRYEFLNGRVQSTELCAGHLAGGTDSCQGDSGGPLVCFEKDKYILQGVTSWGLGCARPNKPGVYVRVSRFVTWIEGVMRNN
UniProt P16671: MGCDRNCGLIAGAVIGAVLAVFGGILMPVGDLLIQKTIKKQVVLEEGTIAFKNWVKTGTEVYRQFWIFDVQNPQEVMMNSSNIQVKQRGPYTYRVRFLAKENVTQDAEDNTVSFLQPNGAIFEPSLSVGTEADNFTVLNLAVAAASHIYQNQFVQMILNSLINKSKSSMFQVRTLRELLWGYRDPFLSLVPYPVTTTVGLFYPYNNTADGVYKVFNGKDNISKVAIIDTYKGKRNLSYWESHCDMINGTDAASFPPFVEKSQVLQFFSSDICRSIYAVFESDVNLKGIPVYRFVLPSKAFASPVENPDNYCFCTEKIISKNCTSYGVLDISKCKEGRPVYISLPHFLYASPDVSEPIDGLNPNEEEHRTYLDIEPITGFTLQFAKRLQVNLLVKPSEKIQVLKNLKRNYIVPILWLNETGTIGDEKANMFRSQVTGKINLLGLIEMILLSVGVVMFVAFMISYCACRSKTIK
UniProt P02743, residues 20-223: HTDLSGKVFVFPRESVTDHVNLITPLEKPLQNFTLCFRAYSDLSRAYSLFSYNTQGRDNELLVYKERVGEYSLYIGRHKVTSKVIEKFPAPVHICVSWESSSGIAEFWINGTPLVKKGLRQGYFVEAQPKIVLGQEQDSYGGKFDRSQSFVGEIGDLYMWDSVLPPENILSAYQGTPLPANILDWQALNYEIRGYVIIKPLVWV
UniProt P61088: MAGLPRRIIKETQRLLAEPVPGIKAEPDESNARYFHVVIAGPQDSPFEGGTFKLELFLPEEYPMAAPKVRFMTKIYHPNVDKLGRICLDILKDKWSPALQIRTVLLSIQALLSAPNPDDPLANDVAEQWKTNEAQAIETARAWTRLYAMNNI
UniProt O43920: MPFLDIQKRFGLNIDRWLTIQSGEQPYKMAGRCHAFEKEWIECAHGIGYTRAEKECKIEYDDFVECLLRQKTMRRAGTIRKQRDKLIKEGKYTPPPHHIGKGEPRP
UniProt O43678: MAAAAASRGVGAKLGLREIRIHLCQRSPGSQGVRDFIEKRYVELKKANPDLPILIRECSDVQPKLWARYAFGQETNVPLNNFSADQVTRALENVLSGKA
UniProt Q0ZGT2: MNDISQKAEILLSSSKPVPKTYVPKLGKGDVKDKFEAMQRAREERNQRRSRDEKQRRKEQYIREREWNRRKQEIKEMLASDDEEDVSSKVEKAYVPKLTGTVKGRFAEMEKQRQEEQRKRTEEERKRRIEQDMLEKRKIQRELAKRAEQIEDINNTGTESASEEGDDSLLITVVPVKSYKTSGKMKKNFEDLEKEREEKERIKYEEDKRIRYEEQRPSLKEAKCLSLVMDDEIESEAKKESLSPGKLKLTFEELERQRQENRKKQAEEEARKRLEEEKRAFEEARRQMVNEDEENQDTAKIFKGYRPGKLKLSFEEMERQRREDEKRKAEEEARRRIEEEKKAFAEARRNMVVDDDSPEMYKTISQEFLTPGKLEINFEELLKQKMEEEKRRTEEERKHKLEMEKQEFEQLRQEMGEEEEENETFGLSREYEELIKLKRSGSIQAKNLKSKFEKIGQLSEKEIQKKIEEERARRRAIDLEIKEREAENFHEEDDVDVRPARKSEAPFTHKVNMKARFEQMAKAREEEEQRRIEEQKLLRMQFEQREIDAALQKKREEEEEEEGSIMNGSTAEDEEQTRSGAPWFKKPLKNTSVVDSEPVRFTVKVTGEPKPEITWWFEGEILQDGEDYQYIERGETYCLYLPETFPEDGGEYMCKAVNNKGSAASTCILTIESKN
UniProt P02775, residues 35-128: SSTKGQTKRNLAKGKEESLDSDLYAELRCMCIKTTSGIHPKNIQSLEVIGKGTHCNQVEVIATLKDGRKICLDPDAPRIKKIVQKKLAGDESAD
UniProt Q06323: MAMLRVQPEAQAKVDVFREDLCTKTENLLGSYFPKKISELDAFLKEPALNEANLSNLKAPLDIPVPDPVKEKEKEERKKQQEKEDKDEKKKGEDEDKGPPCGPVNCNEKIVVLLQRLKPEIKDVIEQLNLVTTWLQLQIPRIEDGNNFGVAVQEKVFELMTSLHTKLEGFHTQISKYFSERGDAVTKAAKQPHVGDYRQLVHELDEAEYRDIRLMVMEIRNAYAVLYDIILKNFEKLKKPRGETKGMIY
UniProt Q99436: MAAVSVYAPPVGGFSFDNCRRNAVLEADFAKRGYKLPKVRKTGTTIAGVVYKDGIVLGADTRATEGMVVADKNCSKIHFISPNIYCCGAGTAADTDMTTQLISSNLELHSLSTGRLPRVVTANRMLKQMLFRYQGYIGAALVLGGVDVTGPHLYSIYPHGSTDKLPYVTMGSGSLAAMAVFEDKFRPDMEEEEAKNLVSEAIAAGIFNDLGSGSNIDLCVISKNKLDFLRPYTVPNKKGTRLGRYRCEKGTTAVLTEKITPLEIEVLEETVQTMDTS
UniProt P26447: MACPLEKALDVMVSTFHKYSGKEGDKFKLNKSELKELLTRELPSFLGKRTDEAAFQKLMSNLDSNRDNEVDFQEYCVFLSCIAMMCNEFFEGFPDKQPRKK
UniProt P07237, residues 18-508: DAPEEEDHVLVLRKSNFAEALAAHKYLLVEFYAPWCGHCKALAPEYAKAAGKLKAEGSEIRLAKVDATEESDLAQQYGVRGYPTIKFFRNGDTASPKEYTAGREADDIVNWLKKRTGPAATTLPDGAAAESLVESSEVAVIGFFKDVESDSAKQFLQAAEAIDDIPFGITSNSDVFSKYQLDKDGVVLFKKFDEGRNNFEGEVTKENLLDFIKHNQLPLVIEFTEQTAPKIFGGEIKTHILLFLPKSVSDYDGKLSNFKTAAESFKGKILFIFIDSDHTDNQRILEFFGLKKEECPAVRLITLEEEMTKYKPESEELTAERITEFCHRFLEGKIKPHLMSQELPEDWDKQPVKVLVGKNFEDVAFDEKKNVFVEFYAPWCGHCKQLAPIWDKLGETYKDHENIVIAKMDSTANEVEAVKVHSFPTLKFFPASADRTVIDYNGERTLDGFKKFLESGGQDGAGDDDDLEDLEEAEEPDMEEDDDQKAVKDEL
UniProt P30101, residues 25-505: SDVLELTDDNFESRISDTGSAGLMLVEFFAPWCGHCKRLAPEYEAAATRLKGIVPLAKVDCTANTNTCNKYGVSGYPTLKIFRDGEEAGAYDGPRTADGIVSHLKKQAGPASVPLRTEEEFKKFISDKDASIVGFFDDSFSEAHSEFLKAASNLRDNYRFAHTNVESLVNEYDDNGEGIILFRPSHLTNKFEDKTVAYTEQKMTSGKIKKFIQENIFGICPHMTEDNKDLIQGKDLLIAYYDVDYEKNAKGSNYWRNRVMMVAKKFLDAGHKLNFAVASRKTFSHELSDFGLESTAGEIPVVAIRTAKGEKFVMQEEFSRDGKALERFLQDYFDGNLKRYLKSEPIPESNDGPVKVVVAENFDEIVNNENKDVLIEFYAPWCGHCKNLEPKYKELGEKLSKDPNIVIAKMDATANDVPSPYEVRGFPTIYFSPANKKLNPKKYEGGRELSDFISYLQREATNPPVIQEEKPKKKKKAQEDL
UniProt O75563: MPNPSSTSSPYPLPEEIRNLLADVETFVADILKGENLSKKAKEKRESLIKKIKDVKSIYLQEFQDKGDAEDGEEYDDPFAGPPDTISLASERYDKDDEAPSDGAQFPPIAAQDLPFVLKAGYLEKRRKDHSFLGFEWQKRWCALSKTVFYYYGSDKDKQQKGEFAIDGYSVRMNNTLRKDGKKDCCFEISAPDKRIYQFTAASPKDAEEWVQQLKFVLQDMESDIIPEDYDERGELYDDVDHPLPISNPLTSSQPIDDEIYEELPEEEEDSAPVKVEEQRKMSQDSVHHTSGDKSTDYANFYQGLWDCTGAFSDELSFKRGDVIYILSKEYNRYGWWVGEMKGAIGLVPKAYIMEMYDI
UniProt P01137, residues 279-390: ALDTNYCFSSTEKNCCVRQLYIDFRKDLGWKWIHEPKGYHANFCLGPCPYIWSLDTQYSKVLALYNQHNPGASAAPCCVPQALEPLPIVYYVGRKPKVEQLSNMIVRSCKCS
UniProt P45974: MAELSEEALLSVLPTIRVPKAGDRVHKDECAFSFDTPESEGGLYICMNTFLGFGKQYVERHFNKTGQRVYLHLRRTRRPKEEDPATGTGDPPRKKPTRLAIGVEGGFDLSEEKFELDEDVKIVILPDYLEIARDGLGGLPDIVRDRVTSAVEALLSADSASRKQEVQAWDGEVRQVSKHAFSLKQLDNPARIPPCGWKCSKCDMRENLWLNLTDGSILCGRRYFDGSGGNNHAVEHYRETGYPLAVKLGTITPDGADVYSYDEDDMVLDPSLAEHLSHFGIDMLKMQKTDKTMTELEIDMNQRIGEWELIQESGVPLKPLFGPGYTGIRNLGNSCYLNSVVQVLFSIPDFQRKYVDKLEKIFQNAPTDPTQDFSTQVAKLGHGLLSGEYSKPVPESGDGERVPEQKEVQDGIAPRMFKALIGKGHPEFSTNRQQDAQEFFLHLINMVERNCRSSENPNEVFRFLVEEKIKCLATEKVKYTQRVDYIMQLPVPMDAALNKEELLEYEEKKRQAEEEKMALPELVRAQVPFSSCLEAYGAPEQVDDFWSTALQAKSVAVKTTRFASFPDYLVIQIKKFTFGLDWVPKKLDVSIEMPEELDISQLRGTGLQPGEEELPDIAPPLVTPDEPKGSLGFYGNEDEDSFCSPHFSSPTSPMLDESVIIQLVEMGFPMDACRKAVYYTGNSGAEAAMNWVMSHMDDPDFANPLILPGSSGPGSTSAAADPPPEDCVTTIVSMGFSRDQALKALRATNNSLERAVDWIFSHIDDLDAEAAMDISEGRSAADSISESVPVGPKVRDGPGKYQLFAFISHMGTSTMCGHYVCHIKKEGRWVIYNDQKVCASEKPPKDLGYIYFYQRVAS
UniProt P61960: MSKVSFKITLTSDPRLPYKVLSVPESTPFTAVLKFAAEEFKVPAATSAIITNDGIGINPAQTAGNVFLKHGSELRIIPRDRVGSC
UniProt O75348: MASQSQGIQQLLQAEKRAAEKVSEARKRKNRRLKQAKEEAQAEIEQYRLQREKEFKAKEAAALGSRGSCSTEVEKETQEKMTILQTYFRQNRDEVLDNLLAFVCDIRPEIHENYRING
UniProt P10644: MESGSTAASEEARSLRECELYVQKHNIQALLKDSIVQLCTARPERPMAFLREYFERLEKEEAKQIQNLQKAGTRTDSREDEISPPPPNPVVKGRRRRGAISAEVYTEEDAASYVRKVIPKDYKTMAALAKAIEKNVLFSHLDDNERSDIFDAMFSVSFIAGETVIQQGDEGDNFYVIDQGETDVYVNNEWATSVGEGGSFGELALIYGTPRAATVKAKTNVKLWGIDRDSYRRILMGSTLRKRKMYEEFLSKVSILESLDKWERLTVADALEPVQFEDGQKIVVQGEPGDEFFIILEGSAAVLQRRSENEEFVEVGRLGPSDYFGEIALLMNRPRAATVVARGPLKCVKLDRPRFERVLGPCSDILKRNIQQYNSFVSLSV

| binding [1] | binding [2] | Molecule |
| --- | --- | --- |
| binds | – | Plasminogen (from UniProt P00747) |
| binds | – | Platelet glycoprotein 4 (from UniProt P16671 1-472) |
| binds | – | Serum amyloid P-component (from UniProt P02743 20-223) |
| binds | – | Signal transducer and activator of transcription 3 (from UniProt P40763 1-770) |
| binds | – | Thrombospondin-1 (from UniProt P07996 19-1170) |
| binds | – | Transitional endoplasmic reticulum ATPase (from UniProt P55072 1-806) |
| binds | – | Tropomyosin alpha-4 chain (from UniProt P67936 1-248) |
| binds | – | Ubiquitin-Conjugating enzyme E2 N (from UniProt P61088 1-152) |
| – | binds | Peroxiredoxin-6 (protein, UniProt P30041 1-224) MPGGLLLGDVAPNFEANTTVGRIRFHDFLGDSWGILFSHPRDFTPVCTTELGRAAKLAPEFAKRNVKLIALSIDSVEDHLAWSKDINAYNCEEPTEKLPFPIIDDRNRELAILLGMLDPAEKDEKGMPVTARVVFVFGPDKKLKLSILYPATTGRNFDEILRVVISLQLTAEKRVATPVDWKDGDSVMVLPTIPEEEAKKLFPKGVFTKELPSGKKYLRYTPQP |
| – | binds | Mitochondrial import inner membrane translocase subunit TIM16 (protein, UniProt Q9Y3D7 1-125) MAKYLAQIIVMGVQVVGRAFARALRQEFAASRAAADARGRAGHRSAAASNLSGLSLQEAQQILNVSKLSPEEVQKNYEHLFKVNDKSVGGSFYLQSKVVRAKERLDEELKIQAQEDREKGQMPHT |
| – | binds | Thioredoxin domain-containing protein 9 (protein, UniProt O14530 1-226) MEADASVDMFSKVLEHQLLQTTKLVEEHLDSEIQKLDQMDEDELERLKEKRLQALRKAQQQKQEWLSKGHGEYREIPSERDFFQEVKESENVVCHFYRDSTFRCKILDRHLAILSKKHLETKFLKLNVEKAPFLCERLHIKVIPTLALLKDGKTQDYVVGFTDLGNTDDFTTETLEWRLGSSDILNYSGNLMEPPFQNQKKFGTNFTKLEKKTIRGKKYDSDSDDD |

Continued, molecule first:

| Molecule | binding [1] | binding [2] |
| --- | --- | --- |
| NADH dehydrogenase (ubiquinone) iron–sulfur protein 5 (from UniProt O43920 1-106) | binds | – |
| NADH dehydrogenase [ubiquinone] 1 alpha subcomplex subunit 2 (from UniProt O43678 1-99) | binds | – |
| Nexilin (from UniProt Q0ZGT2 1-675) | binds | – |
| Platelet basic protein (from UniProt P02775 35-128) | binds | – |
| Proteasome activator complex subunit 1 (from UniProt Q06323 1-249) | binds | – |
| Proteasome activator complex subunit 2 (from UniProt Q9UL46 1-239) | binds | – |
| Proteasome subunit beta type-7 (from UniProt Q99436) | binds | – |
| Protein S100-A4 (from UniProt P26447 1-101) | binds | – |
| Protein disulfide-isomerase (from UniProt P07237 18-508) | binds | – |
| Protein disulfide-isomerase A3 (from UniProt P30101 25-505) | binds | – |
| Rho-Associated protein kinase 2 (from UniProt O75116 1-1388) | binds | – |
| Src kinase-associated phosphoprotein 2 (from UniProt O75563 1-359) | binds | – |
| Transforming growth factor beta-1 (from UniProt P01137 279-390) | binds | – |
| Transforming growth factor beta-1-induced transcript 1 protein (from UniProt O43294 1-461) | binds | – |
| Trifunctional enzyme subunit alpha, mitochondrial (from UniProt P40939 37-763) | binds | – |
| Ubiquitin carboxyl-terminal hydrolase 5 (from UniProt P45974 1-858) | binds | – |
| Ubiquitin-Fold modifier 1 (from UniProt P61960 1-85) | binds | – |
| V-type proton ATPase subunit G 1 (from UniProt O75348 1-118) | binds | – |
| cAMP-dependent protein kinase type I-alpha regulatory subunit (from UniProt P10644 1-381) | binds | – |
| von Willebrand factor (from UniProt P04275 764-2813) | binds | – |
| Glutaredoxin domain-containing cysteine-rich protein 2 (protein, UniProt A6NFK2 1-248) MEDPEKKLNQKSDGKPRKVRFKISSSYSGRVLKQVFEDGQELESPKEEYPHSFLQESLETMDGVYGSGEVPRPQMCSPKLTAQRISVFREGNAYTLAGGQPRFNDYKANDHKPLPIIDFGKIIIYTNNLKIIRTPMDKRDFVRKILQKEEEAEEESLMNKEESYGGRDQHDRPLVEAESTLPQNRYTQEGDIPEDSCFHCRGSGSATCSLCHGSKFSMLANRFKESYRALRCPACNENGLQPCQICNQ | – | binds |
| Ubiquitin carboxyl-terminal hydrolase 8 (protein, UniProt P40818 1-1118) MPAVASVPKELYLSSSLKDLNKKTEVKPEKISTKSYVHSALKIFKTAEECRLDRDEERAYVLYMKYVTVYNLIKKRPDFKQQQDYFHSILGPGNIKKAVEEAERLSESLKLRYEEAEVRKKLEEKDRQEEAQRLQQKRQETGREDGGTLAKGSLENVLDSKDKTQKSNGEKNEKCETKEKGAITAKELYTMMTDKNISLIIMDARRMQDYQDSCILHSLSVPEEAISPGVTASWIEAHLPDDSKDTWKKRGNVEYVVLLDWFSSAKDLQIGTTLRSLKDALFKWESKTVLRNEPLVLEGGYENWLLCYPQYTTNAKVTPPPRRQNEEVSISLDFTYPSLEESIPSKPAAQTPPASIEVDENIELISGQNERMGPLNISTPVEPVAASKSDVSPIIQPVPSIKNVPQIDRTKKPAVKLPEEHRIKSESTNHEQQSPQSGKVIPDRSTKPVVFSPTLMLTDEEKARIHAETALLMEKNKQEKELRERQQEEQKEKLRKEEQEQKAKKKQEAEENEITEKQQKAKEEMEKKESEQAKKEDKETSAKRGKEITGVKRQSKSEHETSDAKKSVEDRGKRCPTPEIQKKSTGDVPHTSVTGDSGSGKPFKIKGQPESGILRTGTFREDTDDTERNKAQREPLTRARSEEMGRIVPGLPSGWAKFLDPITGTFRYYHSPTNTVHMYPPEMAPSSAPPSTPPTHKAKPQIPAERDREPSKLKRSYSSPDITQAIQEEEKRKPTVTPTVNRENKPTCYPKAEISRLSASQIRNLNPVFGGSGPALTGLRNLGNTCYMNSILQCLCNAPHLADYFNRNCYQDDINRSNLLGHKGEVAEEFGIIMKALWTGQYRYISPKDFKITIGKINDQFAGYSQQDSQELLLFLMDGLHEDLNKADNRKRYKEENNDHLDDFKAAEHAWQKHKQLNESIIVALFQGQFKSTVQCLTCHKKSRTFEAFMYLSLPLASTSKCTLQDCLRLFSKEEKLTDNNRFYCSHCRARRDSLKKIEIWKLPPVLLVHLKRFSYDGRWKQKLQTSVDFPLENLDLSQYVIGPKNNLKKYNLFSVSNHYGGLDGGHYTAYCKNAARQRWFKFDDHEVSDISVSSVKSSAAYILFYTSLGPRVTDVAT | – | binds |
| Protein S100-A8 (protein, UniProt P05109 1-93) MLTELEKALNSIIDVYHKYSLIKGNFHAVYRDDLKKLLETECPQYIRKKGADVWFKELDINTDGAVNFQEFLILVIKMGVAAHKKSHEESHKE | – | binds |
| Glutathione S-transferase Mu 3 (protein, UniProt P21266 1-225) MSCESSMVLGYWDIRGLAHAIRLLLEFTDTSYEEKRYTCGEAPDYDRSQWLDVKFKLDLDFPNLPYLLDGKNKITQSNAILRYIARKHNMCGETEEEKIRVDIIENQVMDFRTQLIRLCYSSDHEKLKPQYLEELPGQLKQFSMFLGKFSWFAGEKLTFVDFLTYDILDQNRIFDPKCLDEFPNLKAFMCRFEALEKIAAYLQSDQFCKMPINNKMAQWGNKPVC | – | binds |
| (E3-independent) E2 ubiquitin-conjugating enzyme (protein, UniProt Q9C0C9 1-1292) MADPAAPTPAAPAPAQAPAPAPEAVPAPAAAPVPAPAPASDSASGPSSDSGPEAGSQRLLFSHDLVSGRYRGSVHFGLVRLIHGEDSDSEGEEEGRGSSGCSEAGGAGHEEGRASPLRRGYVRVQWYPEGVKQHVKETKLKLEDRSVVPRDVVRHMRSTDSQCGTVIDVNIDCAVKLIGTNCIIYPVNSKDLQHIWPFMYGDYIAYDCWLGKVYDLKNQIILKLSNGARCSMNTEDGAKLYDVCPHVSDSGLFFDDSYGFYPGQVLIGPAKIFSSVQWLSGVKPVLSTKSKFRVVVEEVQVVELKVTWITKSFCPGGTDSVSPPPSVITQENLGRVKRLGCFDHAQRQLGERCLYVFPAKVEPAKIAWECPEKNCAQGEGSMAKKVKRLLKKQVVRIMSCSPDTQCSRDHSMEDPDKKGESKTKSEAESASPEETPDGSASPVEMQDEGAEEPHEAGEQLPPFLLKEGRDDRLHSAEQDADDEAADDTDDTSSVTSSASSTTSSQSGSGTSRKKSIPLSIKNLKRKHKRKKNKITRDFKPGDRVAVEVVTTMTSADVMWQDGSVECNIRSNDLFPVHHLDNNEFCPGDFVVDKRVQSCPDPAVYGVVQSGDHIGRTCMVKWFKLRPSGDDVELIGEEEDVSVYDIADHPDFRFRTTDIVIRIGNTEDGAPHKEDEPSVGQVARVDVSSKVEVVWADNSKTIILPQHLYNIESEIEESDYDSVEGSTSGASSDEWEDDSDSWETDNGLVEDEHPKIEEPPIPPLEQPVAPEDKGVVISEEAATAAVQGAVAMAAPMAGLMEKAGKDGPPKSFRELKEAIKILESLKNMTVEQLLTGSPTSPTVEPEKPTREKKFLDDIKKLQENLKKTLDNVAIVEEEKMEAVPDVERKEDKPEGQSPVKAEWPSETPVLCQQCGGKPGVTFTSAKGEVFSVLEFAPSNHSFKKIEFQPPEAKKFFSTVRKEMALLATSLPEGIMVKTFEDRMDLFSALIKGPTRTPYEDGLYLFDIQLPNIYPAVPPHFCYLSQCSGRLNPNLYDNGKVCVSLLGTWIGKGTERWTSKSSLLQVLISIQGLILVNEPYYNEAGFDSDRGLQEGYENSRCYNEMALIRVVQSMTQLVRRPPEVFEQEIRQHFSTGGWRLVNRIESWLETHALLEKAQALPNGVPKASSSPEPPAVAELSDSGQQEPEDGGPAPGEASQGSDSEGGAQGLASASRDHTDQTSETAPDASVPPSVKPKKRRKSYRSFLPEKSGYPDIGFPLFPLSKGFIKSIRGVLTQFRAALLEAGMPECTEDK | – | binds |
